PubChem BioAssay AID504804 | Drosophila RNAi Screening Center – 2011
Screen: 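Fly genes whose loss lessens doxorubicin-driven cell death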 (primary screen). System: Drosophila Kc cells. Reagents: long dsRNA against Drosophila genes, 0.5 µg dsRNA per well. Timing: 96 h (48 h knock-down, then 48 h drug). Challenge: doxorubicin 5 µg/ml for 48 h, added 48 h after dsRNA. Measured: 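Luminescent ATP counts per replicate, not normalised, reflecting viable cells after 48 h dsRNA knock-down followed by 48 h of 5 µg/ml doxorubicin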. Scale: raw ATP luminescence: higher = more viable cells, protection from doxorubicin. Hit rule: 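z-score of 2 or more over plate mean in both duplicates, retained only when retests and separate dsRNAs confirm the protection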.
The screen tested about 19,000 reagents; this is an unselected part of those that have a named target and a result. Over the whole deposit, 47 (0.25%) were called active. 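Signals are raw, not normalised; exact z-scores behind calls not deposited; actives needed confirmation, so some wells reaching 2 SD are inactive.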 Entries without a mark were called inactive. Names joined by + are all predicted targets of the reagent. No sequences are given here.

| target gene | dsRNA | raw ATP luminescence, replicate 1 | raw ATP luminescence, replicate 2 |
| --- | --- | --- | --- |
| lobo (lost boys) | DRSC14662 | 80760 | 71740 |
| lobo (lost boys) | DRSC14663 | 82980 | 79850 |
| CG12983 | DRSC11692 | 85030 | 66230 |
| Aven (Apoptosis and caspase activation inhibitor) | DRSC19693 | 2.91e5 | 2.96e5 |
| CG33330 (retired record) | DRSC13053 | 46323 | 47004 |
| CG33330 (retired record) | DRSC15495 | 77643 | 43480 |
| CG12986 | DRSC19506 | 3.50e5 | 3.75e5 |
| CG30075 | DRSC05484 | 1.04e5 | 99270 |
| asp (abnormal spindle) | DRSC16903 | 36090 | 39993 |
| eIF2beta (eukaryotic translation initiation factor 2 subunit beta) | DRSC11341 | 66790 | 55690 |
| CG10991 (retired record) | DRSC12156 | 63627 | 62360 |
| lncRNA:CR40629 (long non-coding RNA:CR40629) | DRSC20959 | 2.49e5 | 2.52e5 |
| Pbp95 (PSEA-binding protein 95kD) | DRSC15448 | 54373 | 53877 |
| mthl8 (methuselah-like 8) | DRSC08211 | 63950 | 67407 |
| RpL5 (Ribosomal protein L5) | DRSC03801 | 37473 | 35240 |
| dia (diaphanous) | DRSC03519 | 72840 | 74433 |
| l(3)87Df (lethal (3) 87Df) | DRSC16982 | 81180 | 66420 |
| CG32191 | DRSC10522 | 72317 | 55833 |
| CG3038 | DRSC18618 | 63210 | 55730 |
| AOX3 (Aldehyde oxidase 3) | DRSC15955 | 52950 | 28370 |
| kune (kune-kune) | DRSC04860 | 56140 | 46793 |
| CG34393 | DRSC00419 | 19590 | 26550 |
| CG34393 | DRSC00710 | 24743 | 29137 |
| snoRNA:Me28S-A982b + Uhg4 + snoRNA:Me28S-G3255a + 1 more | DRSC05143 | 74540 | 86973 |
| CG3408 | DRSC10360 | 97087 | 80713 |
| Nse1 (Non-SMC element 1) | DRSC02147 | 1.05e5 | 90427 |
| CG34039 | DRSC09318 | 72803 | 72147 |
| NAT1 | DRSC06854 | 59037 | 59390 |
| CG42812 + CG42811 | DRSC15367 | 82210 | 85310 |
| CG42812 + CG42811 | DRSC15368 | 67330 | 59480 |
| ATPsynG (ATP synthase, subunit G) | DRSC02928 | 38080 | 66230 |
| CG13760 | DRSC18617 | 49530 | 50480 |
| CG10209 | DRSC05980 | 56990 | 58287 |
| CG10097 + CG10096 | DRSC14189 | 58597 | 33387 |
| CG10097 + CG10096 | DRSC14190 | 49270 | 47643 |

Targets listed so far whose gene name starts with A or a (4):
| target gene | dsRNA | raw ATP luminescence, replicate 1 | raw ATP luminescence, replicate 2 |
| --- | --- | --- | --- |
| Aven (Apoptosis and caspase activation inhibitor) | DRSC19693 | 2.91e5 | 2.96e5 |
| asp (abnormal spindle) | DRSC16903 | 36090 | 39993 |
| AOX3 (Aldehyde oxidase 3) | DRSC15955 | 52950 | 28370 |
| ATPsynG (ATP synthase, subunit G) | DRSC02928 | 38080 | 66230 |
